According to patent publication US20150094353:
At least one result comes from cells or an extract, where the contact may be indirect.

The chains behind the UniProt entries cited, without tags or fusion partners. Residues count along the entry.
UniProt P40763, 2-770: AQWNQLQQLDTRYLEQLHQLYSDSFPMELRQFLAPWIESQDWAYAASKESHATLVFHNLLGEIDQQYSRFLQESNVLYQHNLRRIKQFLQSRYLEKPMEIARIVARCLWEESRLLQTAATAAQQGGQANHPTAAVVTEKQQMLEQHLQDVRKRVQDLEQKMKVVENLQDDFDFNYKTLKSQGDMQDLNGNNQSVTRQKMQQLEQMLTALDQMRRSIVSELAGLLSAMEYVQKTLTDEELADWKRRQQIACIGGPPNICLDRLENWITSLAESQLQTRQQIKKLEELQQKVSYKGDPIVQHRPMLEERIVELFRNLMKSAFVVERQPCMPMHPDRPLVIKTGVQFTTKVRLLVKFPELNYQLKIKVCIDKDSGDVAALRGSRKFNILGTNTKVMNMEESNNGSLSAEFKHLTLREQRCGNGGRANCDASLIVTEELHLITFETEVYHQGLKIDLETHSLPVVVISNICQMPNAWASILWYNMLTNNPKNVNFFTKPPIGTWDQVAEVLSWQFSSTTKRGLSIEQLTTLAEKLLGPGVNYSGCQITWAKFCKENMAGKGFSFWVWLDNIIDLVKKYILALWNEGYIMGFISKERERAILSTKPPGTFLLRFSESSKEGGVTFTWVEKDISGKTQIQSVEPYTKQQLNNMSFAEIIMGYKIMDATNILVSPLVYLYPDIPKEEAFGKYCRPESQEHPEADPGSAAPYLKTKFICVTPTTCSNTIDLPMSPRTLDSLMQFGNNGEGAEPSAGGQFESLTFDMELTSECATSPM
UniProt P42224, 2-750: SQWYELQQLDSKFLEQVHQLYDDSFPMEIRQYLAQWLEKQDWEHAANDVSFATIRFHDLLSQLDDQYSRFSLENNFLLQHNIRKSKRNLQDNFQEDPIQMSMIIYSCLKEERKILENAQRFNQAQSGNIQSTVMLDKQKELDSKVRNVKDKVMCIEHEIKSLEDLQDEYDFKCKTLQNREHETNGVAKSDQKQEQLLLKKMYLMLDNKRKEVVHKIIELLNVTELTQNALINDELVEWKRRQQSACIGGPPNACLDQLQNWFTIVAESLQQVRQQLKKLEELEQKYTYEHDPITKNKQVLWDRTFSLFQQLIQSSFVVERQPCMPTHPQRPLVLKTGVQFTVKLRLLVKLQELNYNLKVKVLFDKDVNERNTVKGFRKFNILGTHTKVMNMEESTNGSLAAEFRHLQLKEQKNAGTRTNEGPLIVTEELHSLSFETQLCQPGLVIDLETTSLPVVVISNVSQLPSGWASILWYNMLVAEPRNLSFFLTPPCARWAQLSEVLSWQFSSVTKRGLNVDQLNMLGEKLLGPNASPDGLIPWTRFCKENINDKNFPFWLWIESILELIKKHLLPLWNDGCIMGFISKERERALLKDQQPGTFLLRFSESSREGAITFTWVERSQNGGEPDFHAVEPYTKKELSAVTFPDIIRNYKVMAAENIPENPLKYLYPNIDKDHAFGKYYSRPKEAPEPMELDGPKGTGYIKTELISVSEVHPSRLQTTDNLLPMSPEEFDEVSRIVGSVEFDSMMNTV

How the values were obtained:
STAT3 (human) = STAT3 (human) (UniProt P40763); test: EMSA; details: supershift with STAT3 antibody and 100-fold cold probe competition; 10 mM HEPES pH 7.9, 50 mM KCl, poly(dI-dC), RT; binding inhibited by inS3-54 with IC50 about 20 uM; protein in a lysate after overexpression; protein details: FLAG, transiently expressed in H1299 cells; label: 32P
STAT1 = STAT1 (UniProt P42224); test: EMSA; details: STAT1 antibody interference and cold competition; 10 mM HEPES pH 7.9, 50 mM KCl, RT; not affected by inS3-54 up to 300 uM; protein in a lysate after overexpression; label: 32P

AGCTTCATTTCCCGTAAATCCCTA (double strand) [SIE probe]
binding result (STAT3 (human)): binds | binding result (STAT1): binds
